Laboratory results published in paper PMC3659094.
No constants are given. Whether binding was seen depends on the method and setting. In cells and extracts the contact can be indirect. Some entries that bind do so weakly or less than the wild type.

Protein sequences, listed by entry. Tags and fused reporters are not part of them. Lines headed by an entry give the natural chain unless they say otherwise; changes in a name come on top. Chains listed by the source or under a name are the forms on record and can include a tag or linker.
human Tyrosine kinase receptor B (TrkB) (Q16620, form named): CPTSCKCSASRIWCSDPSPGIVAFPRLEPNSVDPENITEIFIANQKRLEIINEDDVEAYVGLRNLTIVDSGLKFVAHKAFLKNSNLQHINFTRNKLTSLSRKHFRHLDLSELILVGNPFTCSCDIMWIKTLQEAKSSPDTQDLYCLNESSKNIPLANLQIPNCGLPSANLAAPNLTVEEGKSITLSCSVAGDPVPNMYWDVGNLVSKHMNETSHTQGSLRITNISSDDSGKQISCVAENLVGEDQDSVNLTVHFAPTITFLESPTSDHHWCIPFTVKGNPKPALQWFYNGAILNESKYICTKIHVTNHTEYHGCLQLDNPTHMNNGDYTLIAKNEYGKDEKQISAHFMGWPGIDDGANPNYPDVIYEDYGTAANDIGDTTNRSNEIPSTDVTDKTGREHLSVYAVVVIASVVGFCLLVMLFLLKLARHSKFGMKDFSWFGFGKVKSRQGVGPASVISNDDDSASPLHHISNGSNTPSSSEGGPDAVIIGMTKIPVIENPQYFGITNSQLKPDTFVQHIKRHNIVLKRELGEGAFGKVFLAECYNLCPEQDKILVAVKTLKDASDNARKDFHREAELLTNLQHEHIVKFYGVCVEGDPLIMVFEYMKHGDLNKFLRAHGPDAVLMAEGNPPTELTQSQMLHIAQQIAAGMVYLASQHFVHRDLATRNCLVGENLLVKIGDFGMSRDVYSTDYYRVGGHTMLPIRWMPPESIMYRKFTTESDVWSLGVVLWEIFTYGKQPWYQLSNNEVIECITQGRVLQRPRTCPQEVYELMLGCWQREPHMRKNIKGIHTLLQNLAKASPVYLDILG

Biological target: human Tyrosine kinase receptor B (TrkB) (human) (UniProt Q16620)
Test: split reporter; Pathhunter technology (Discoverx), chemiluminescent signal; U2OS cells over-expressing human TrkB, 384-well plate, MEM + 0.5% horse serum; agonist (TAM-163 or BDNF) 3 hours at room temperature, substrate 1 hour; triplicate

- binding: binds
B1: SHC1 (protein, UniProt P29353 1-583)
chain: MDLLPPKPKYNPLRNESLSSLEEGASGSTPPEELPSPSASSLGPILPPLPGDDSPTTLCSFFPRMSNLRLANPAGGRPGSKGEPGRAADDGEGIVGAAMPDSGPLPLLQDMNKLSGGGGRRTRVEGGQLGGEEWTRHGSFVNKPTRGWLHPNDKVMGPGVSYLVRYMGCVEVLQSMRALDFNTRTQVTREAISLVCEAVPGAKGATRRRKPCSRPLSSILGRSNLKFAGMPITLTVSTSSLNLMAADCKQIIANHHMQSISFASGGDPDTAEYVAYVAKDPVNQRACHILECPEGLAQDVISTIGQAFELRFKQYLRNPPKLVTPHDRMAGFDGSAWDEEEEEPPDHQYYNDFPGKEPPLGGVVDMRLREGAAPGAARPTAPNAQTPSHLGATLPVGQPVGGDPEVRKQMPPPPPCPGRELFDDPSYVNVQNLDKARQAVGGAGPPNPAINGSAPRDLFDMKPFEDALRVPPPPQSVSMAEQLRGEPWFHGKLSRREAEALLQLNGDFLVRESTTTPGQYVLTGLQSGQPKHLLLVDPEGVVRTKDHRFESVSHLISYHMDNHLPIISAGSELCLQQPVERKL
